From PMC4154660
Like-named read-outs stand apart in the source and are kept apart here. Results are given in words; binding and its absence hold for the method and conditions named. In cells and extracts the contact can be indirect. These calls come from enrichment with a bait or labelling near it, and not all partners need be listed. For some of these results: No binding means not detected with the bait. For some of these results: Sequences can lack the tags named with a protein. Each block holds one molecule with its values, some of them ahead of it.

Sequences of proteins named here, by UniProt entry; tags and fusion partners are left off. A change or cut given only in a name is not applied to a line headed by its entry.
UniProt F7VLP8: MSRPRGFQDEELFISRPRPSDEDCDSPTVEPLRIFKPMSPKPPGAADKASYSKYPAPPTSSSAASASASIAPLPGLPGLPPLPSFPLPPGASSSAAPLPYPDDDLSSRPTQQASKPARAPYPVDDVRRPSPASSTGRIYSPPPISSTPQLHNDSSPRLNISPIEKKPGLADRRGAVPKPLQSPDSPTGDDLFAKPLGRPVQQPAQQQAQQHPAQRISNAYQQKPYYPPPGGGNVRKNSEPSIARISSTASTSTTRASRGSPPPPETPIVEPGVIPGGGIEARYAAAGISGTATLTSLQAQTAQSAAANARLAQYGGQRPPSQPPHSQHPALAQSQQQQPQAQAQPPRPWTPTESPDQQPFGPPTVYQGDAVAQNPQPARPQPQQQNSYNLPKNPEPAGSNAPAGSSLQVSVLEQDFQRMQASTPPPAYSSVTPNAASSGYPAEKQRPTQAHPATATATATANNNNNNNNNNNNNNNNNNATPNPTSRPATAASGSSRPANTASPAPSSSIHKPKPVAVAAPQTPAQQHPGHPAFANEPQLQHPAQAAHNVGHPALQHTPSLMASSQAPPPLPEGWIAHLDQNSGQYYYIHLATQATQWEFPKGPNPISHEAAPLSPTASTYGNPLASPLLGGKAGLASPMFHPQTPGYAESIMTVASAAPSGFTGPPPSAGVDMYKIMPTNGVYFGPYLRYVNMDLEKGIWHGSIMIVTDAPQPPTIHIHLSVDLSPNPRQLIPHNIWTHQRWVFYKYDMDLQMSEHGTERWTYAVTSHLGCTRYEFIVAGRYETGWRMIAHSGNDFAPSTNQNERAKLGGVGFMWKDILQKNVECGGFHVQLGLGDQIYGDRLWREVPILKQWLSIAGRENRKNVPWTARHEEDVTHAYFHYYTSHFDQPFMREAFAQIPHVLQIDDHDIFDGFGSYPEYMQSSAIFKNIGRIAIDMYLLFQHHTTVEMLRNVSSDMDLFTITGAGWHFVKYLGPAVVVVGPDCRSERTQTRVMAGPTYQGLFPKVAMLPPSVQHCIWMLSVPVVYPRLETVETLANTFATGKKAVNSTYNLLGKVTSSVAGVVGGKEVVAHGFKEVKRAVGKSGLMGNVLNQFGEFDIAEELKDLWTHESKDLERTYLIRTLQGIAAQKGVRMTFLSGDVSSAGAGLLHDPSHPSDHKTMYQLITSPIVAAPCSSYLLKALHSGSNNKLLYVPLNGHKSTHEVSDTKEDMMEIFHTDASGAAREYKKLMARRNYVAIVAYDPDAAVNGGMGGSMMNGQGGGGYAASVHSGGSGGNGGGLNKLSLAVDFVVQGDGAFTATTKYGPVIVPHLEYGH
UniProt F7VX13: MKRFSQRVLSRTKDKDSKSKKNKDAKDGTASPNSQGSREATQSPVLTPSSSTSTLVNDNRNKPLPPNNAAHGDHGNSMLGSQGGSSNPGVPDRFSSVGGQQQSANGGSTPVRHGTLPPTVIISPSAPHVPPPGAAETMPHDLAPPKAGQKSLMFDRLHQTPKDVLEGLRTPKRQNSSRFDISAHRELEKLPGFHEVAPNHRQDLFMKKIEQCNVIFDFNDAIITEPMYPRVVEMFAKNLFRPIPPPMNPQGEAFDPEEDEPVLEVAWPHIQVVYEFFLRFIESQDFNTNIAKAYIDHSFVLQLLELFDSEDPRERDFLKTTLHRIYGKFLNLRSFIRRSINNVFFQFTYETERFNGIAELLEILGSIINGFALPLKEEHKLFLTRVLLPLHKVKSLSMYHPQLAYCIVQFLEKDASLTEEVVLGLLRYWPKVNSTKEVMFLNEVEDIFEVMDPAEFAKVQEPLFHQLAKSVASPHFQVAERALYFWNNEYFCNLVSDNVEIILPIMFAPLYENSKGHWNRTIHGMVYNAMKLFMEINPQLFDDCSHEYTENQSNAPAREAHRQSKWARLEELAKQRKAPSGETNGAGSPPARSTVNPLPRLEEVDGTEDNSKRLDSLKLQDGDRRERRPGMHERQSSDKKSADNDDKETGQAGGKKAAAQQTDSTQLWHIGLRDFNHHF
UniProt F7W538: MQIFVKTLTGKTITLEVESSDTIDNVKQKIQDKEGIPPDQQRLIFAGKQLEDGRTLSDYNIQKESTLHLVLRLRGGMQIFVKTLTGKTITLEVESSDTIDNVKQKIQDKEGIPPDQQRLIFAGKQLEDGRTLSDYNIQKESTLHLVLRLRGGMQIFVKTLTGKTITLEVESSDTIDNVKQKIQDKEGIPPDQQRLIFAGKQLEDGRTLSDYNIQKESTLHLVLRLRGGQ
UniProt F7VN81: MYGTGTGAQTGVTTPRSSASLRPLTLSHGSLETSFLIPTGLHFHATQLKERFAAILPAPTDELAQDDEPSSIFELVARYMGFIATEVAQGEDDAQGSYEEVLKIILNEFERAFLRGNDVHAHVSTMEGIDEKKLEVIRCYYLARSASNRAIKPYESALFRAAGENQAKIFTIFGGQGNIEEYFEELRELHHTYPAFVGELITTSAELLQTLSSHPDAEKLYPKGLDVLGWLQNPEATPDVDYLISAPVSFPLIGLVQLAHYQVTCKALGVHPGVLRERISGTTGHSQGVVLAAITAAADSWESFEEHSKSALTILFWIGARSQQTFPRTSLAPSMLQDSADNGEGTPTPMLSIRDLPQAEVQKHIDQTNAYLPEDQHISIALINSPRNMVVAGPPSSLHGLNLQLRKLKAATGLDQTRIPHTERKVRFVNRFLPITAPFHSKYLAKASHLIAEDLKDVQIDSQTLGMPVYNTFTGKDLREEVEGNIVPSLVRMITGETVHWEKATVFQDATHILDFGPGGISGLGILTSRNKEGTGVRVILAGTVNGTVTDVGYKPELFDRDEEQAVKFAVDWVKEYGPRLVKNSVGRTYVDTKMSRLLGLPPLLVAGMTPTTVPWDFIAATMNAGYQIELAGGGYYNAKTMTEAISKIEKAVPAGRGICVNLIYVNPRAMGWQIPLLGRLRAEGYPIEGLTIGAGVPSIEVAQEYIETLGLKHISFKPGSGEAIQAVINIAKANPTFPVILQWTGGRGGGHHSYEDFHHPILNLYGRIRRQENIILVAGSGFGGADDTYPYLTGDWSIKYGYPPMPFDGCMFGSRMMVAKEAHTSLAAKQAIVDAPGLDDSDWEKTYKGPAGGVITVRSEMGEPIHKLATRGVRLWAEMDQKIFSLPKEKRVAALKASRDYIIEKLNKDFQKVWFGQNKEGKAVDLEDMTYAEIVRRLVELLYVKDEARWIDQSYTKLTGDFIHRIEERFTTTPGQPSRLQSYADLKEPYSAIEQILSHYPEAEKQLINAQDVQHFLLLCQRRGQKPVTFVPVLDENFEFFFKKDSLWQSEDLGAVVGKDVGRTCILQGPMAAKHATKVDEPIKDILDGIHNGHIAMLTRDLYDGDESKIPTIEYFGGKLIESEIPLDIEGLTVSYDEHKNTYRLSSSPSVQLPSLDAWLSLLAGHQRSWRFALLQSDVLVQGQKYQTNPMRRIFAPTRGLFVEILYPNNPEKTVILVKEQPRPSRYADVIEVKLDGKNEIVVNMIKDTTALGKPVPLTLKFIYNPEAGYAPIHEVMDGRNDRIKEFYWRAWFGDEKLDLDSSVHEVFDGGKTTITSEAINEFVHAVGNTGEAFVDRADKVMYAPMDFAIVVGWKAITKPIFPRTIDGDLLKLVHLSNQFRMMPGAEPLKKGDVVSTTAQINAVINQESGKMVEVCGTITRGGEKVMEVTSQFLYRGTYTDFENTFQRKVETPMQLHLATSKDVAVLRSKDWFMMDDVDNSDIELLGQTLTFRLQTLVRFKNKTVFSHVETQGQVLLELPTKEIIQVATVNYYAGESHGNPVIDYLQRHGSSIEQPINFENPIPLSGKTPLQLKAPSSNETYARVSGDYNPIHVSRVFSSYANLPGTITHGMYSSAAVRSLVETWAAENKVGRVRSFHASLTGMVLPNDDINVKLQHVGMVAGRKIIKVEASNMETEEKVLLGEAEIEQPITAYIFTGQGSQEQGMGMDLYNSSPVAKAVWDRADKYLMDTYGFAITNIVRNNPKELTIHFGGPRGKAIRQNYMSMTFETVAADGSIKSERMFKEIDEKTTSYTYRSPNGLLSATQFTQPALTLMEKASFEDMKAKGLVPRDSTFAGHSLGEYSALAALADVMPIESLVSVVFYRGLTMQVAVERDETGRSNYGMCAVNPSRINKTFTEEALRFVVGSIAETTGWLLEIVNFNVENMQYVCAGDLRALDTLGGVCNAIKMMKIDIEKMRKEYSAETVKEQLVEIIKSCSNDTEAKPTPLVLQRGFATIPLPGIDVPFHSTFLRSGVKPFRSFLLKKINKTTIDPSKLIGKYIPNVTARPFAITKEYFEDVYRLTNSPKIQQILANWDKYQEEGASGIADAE
UniProt F7W101: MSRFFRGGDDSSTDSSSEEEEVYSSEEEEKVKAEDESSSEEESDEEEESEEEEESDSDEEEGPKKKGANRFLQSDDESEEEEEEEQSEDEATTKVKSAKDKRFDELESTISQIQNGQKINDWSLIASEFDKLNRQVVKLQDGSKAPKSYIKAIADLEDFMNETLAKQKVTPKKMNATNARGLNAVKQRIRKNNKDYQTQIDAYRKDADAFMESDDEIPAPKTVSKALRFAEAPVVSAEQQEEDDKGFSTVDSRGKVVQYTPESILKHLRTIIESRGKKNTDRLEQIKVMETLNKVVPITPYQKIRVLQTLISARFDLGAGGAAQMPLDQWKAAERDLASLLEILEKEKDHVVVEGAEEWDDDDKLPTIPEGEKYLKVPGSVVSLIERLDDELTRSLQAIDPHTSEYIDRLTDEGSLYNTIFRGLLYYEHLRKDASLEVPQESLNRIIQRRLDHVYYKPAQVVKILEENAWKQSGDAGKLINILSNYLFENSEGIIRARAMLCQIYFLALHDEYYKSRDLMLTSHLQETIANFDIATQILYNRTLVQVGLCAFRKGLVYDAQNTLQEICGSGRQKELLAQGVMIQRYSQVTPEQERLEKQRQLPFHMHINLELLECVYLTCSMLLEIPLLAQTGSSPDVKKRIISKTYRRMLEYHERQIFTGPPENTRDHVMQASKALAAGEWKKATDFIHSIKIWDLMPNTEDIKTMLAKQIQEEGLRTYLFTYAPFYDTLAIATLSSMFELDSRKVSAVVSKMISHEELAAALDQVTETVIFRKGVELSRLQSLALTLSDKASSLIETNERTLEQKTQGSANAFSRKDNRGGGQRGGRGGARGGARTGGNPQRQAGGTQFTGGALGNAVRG

Assays:
[1] = molecular target: PRO40-FLAG (Sordaria macrospora) (UniProt F7VLP8); experiment: affinity purification with mass spectrometry; FLAG-AP with MudPIT of PRO40-FLAG from strain T184.2NS11 (Δpro40::pro40-3xFLAG) on anti-FLAG M2 gel, 250 mM NaCl extraction, 150 mM NaCl washes, 3xFLAG peptide elution; wildtype extract as control
[2] = molecular target: PRO40-FLAG (Sordaria macrospora) (UniProt F7VLP8); experiment: as above; remark: listed apart in the source

binding [1]: binds
Molecule: putative regulatory subunit of protein phosphatase PP2A, RTS1 (from UniProt F7VX13)

binding [1]: binds
Molecule: Polyubiquitin (SMAC_07925) (from UniProt F7W538)

binding [1]: binds
Molecule: Fatty acid synthase beta subunit dehydratase (SMAC_00840) (from UniProt F7VN81 1-2092)

binding [1]: binds
Molecule: Eukaryotic translation initiation factor 3 (SMAC_02110) (from UniProt F7W101)

binding [2]: binds
B1: ATP citrate lyase ACL1 (enzyme, UniProt O93988 1-674)
chain: MPSATSTNGANGNGNGNGASASPAPGNLSANDNIRRFAAPSRPLSPLPAHALFNEKTRCFVYGLQPRAVQGMLDFDFICKRSTPSVAGIIYTFGGQFVSKMYWGTSETLLPVYQEVQKAIAKHPDVDVVVNFASSRSVYSSTMELMEHPQIKTIAIIAEGVPERRAREIAYVAKKKGITIIGPATVGGIKPGCFKIGNTGGMMDNIVASKLYRKGSVGYVSKSGGMSNELNNIISQTTDGVYEGVAIGGDRYPGTTFIDHLLRYQADPACKILVLLGEVGGVEEYKVIEAVKQGIITKPIVAWAIGTCASMFKTEVQFGHAGAFANSQLETAATKNKSMREAGFYVPDTFEDMPALLKQVYDKLVADGTIVPAPEPVVPKIPIDYSWAQELGLIRKPAAFISTISDDRGQELLYAGMPISDVFREEIGIGGVMSLLWFRRRLPDYAAKFLEMVLMLTADHGPAVSGAMNTIITTRAGKDLISSLVAGLLTIGSRFGGALDGAAEEFTKAFDKGLSPREFVDTMRKQNKLIPGIGHRVKSRNNPDLRVELVKEYVKAKFPSSKLLDYALAVETVTTSKKDNLILNVDGCIAVCFVDLLRNCGAFSTEEAEDYLSMGVLNGLFVLGRSIGLIAHYLDQKRLRTGLYRHPWDDITYLLPSLQQPGPPGTEGRVEVQI

binding [2]: binds
B2: Duf1750 domain containing protein (SMAC_02833) (protein, UniProt F7VXL1 1-717)
chain: MAGDPSQNVHQDLLPHVHLLSTYRYAFQPRVELPEVTKWLTAAPKIARDTAPFFWTYLDCPNDGSIYLTWQPSGRRGVEFSSDGYIWSGPEIFYHQPAGNGLVLEAYIQRSGFRPGEQHTVHSRKRFRLVPGPAPVPNAPQVDPNLWIVHYGPADKQDRIHVQMVSVSPQMQQMINYRQQLFQMGQIVKKEFMLSDRVNWPQLPLPGRGQSMYAPPMPPRHIPPTMAYPPHPGAVAGSSKRRGGHGQAPGAHPNQMAGGQLHNLEGAFDDEEDVSRGDLFDHLTPREVSIARYQQNHEWMEEILSSPYQIGQIEVSDLGLGRKGALASLTEGIFEAQSTEAVDHGPKKPYTGHLAPGVADEFRKRVMEKNKADMEEIARMKAEHEKALASLRKNSTLMQAEQELRFAAQETGSEPWRLEGRLEDDEEGTSRQGQRNAGTIEEILASVEKLVGKPATVVHDVHRVEDGGYQESAPEPEPILPPAGQAPSMSRQPSQAGSQASGAIIGDSDIDMGGTAAGLLDQMNTAGGFSTTSTPQPLNLSANPSSAATPSAPNVASPLPPAGNQGGDDINMEDADAGASAKVATTASDQIPTASNPSGATTASVPQPPTTAGNSDAAGVAAQQITQPSSKPASAAPTPSGEGIDFSSLGDLDTAGEALAGYDPPSVGPGGDDLGDLNMDMEDSAFGDAFHGVSHSAGPDQSSPGAGLGSAGNTPPV

binding [2]: no binding
B3: Woronin body protein HEX1 (protein, UniProt F7VRA2 1-176)
chain: MGYYDEDSHGHADADAQPRATGTTGTGSASQTVTIPCHHIRLGDILILQGRPCQVIRISTSAATGQHRYLGVDLFTKQLHEESSFVSNPAPSVVVQTMLGPVFKQYRVLDMQDGSIVAMTETGDVKQNLPVIDQSSLWNRLQKAFESGRGSVRVLVVSDHGREMAVDMKVVHGSRL

binding [2]: binds
B4: Oligopeptide transporter (SMAC_03063) (protein, UniProt F7VUC0 1-886)
chain: MATTRDEKAVNITPAGSDQPPALSEKYDEKVGGVHEIGLDRIDSEEAQVIEGHLDVTEEDLLQAKAVAESLSLKDVVKLMKHVVGMHGRDPNFPHVVLEKIQEFLANEENILANPEKHHDIITEMKIEAALIQSNSPYAEVRAVVDNTDDPSTPCSTVRSWTIGILFSVILAFVNQLFSVRQPSISIESNVAQLLAFPLGKAWEKWMPYYEFTLFGTKHNLNPGKFSKKEHMLIAIMANTAKSLPYTQYIVWTQVLPQYFNQSYANSFAYQILIALSTNFIGYGLAGITRRFIVYPSYCVWPASLVTIALNSALHHEENHTVPGPFKKLYSMSRFKFFMWAFGAMFVYFWFPNYLFEALTFFSWMTWIAPNNLNLNILTGFQNGTGMFNPFPTFDWNVMLFDAVDPLMVPAFTTFNKTAGMAFFGFIILGLWYTNVWNTGYLPINSNRVFDHYGSLYNVSRAIDEKGMFDAEKYMDYSAAYLSAANTIVYFAFFAIYAATISHIILFHRAEIAIGFRNIWKSVKPKRWIKRNAAGESLEEEDVGYKDVHNRLMAVYPEVSELWYFGCLVIAMALGFAGVAAWPTYTTAGVVPYGLFLAIIFVIPIGIIKAMTGIEVTLNVLAEFIGGAWVEGNALAMNFFKSFGYVTCAHAISFANDLKLAHYIKIPPRHTFTAQMVATLISTFICTGVLNFQVNIENICQPNAPMRFFCPGINTFFTAAVLWGTIGPVKVFGVHGQYKWLLLGFPIGLCIPIIFWLIIRKFPRNKFIRQFHPVALFYGGLNWAPYSMSYCWPAVPIAWLSWIYVRNRYLAFWSKYNFVLSAAFSAGIAVAGIVMLFSVQWARVSVEWWGNEQPYKGCEDTACTIKTLSEGERFFPWWDANKVPAP

binding [2]: binds
B5: Rho-GTPase-activating protein 8 (SMAC_06590) (protein, UniProt F7W709 1-879)
chain: MPGFADSFWSNDYAAGLGVLFGKLQQGVVENRQLLTIARMRAEAEDVYGQRLSEIAPAVDKIPNGFNRDDGASVRKAYEGVRTEMEDASKNHKKIAQNIRDLVVNPFTRWCDAHESRLQNSQEELQAKIKAHDKQAEVVKKLRSNYFNKCRLVEDLEEENKLAFQDPESAASPKPKQPIPEIKVEPEEEEDDEPFEIGDETYSPDQIKKILAHMLNNIKMGETKVPILGTYQNTSAGTDIVEYFQRHMGTTSVSYAERIGQDLITHGFLRLIGNVGNTFANSSRMFYQWRPQAFKLAGVPEKKAPVNRTFSMPLSNGSEGSDSPVVGAVSEYLANWNIPGVNNGRPNETPSERMRREAREADEKYKAAVQKLDEMRCELEEAIFLHLKFLERCELDRLKAIKTVVLDFSGTISNVIPSLQSTVDNMMLYQETVQPLGDLRYLLENYRTGSFVPKVVTYENYYNKVDEQTFGVDLEARARADKKRVPIIVTTLLTYLDHHYPDLEGDEARRGVWLHEVSLKDTHKLRNKVNNGKPPSLEVFAEFDVATVASLLKLYLLELPDSLVSSHVYEIIRTIYNTTQDSSEDARIPVLQQTLSQLRLTNIATLDACMNHFTRLIELTSADEDYVAKLATTLAPCILRPRTETSLTMEEKHAYRLIRDLFAHKDAIFSELKRMSTLGASASISGNNNRPRAISTDESNRRAHMEERNRLILEKANGGRSRATSPAPGPRAHRRDRSVGGPETRFPISPSGITSPTSSQQHGKRPSLGPVLPKRSSLEVPDEAGSSLSHPADGNLNGAAPAEAGTPKSETADPLADKRSSLVEKRNSLGRSGARISAGRRIPVVASTTASQQQSGSEKENSTGHGHAPVTLTDAPMDY

binding [2]: binds
B6: ATP-binding cassette sub-family f member 2 (SMAC_05099) (protein, UniProt F7W2N6 1-613)
chain: MPPSASKQKRLAEKAAKANKGKPVKEVELDAFGKPVVEDEPATKAEQLDEVKRLAQQMDKHGLSDRVTTGVLASTQASKDVKITSVSLVFHGRVLIKDATLELTLGRRYGLLGENGCGKSTLLKAIAAREYPVPEHVDIYLLNEGAPPSDLGALDWVVTEAKNELARLEMVAEKILEDEGPDSPLLEDLYDHIDKMDPSTFETRASLILTGLGFNKQTIQKKTKDMSGGWRMRVALAKALFVKPTLLLLDDPTAHLDLEACVWLEEYLKKWDRTLVLVSHSEDFLNGVCTSMIDMRLQTLIYYGGNYDTYHKTRAEQETNQMKAYQKQQDEITHIKKFIASAGTYANLVRQAKSRQKILDKMEADGFIQPVKQDRVFSFRFADVEKLPPPVLSFDNVTFSYSGDPKDDLYRHIDLGFDMDSRTALVGPNGVGKSTLLRLMTGKLSPTDGVVQRHTHLKLGLYSQHSAEQLDLTKSALDFVRDKYPDKSQDYQYWRQQLGKYGLSGESQTSLIGTLSDGQKSRIVFALLAIESPNMLLLDEPTNGLDIPTIDSLADAINAFTGGVIVVSHDFRLLDKIAKQILVCENKTIKRWEGSIADYKNYLRKKMISAGAV

binding [2]: binds
B7: Topoisomerase II-associated protein pat1 (SMAC_04662) (protein, UniProt F7W229 1-833)
chain: MSFFNFDQSRHNTAAPGFSQAHDPFASLANREEEAEEIDFEDTYDGLGDQLDETDDVFNDDTFGDDTGAPGPVGKDFDFFGQTAKVADVIEEENVRFNRQQPAAKAPQPVAQPSAYTSTAGPSYAGPSFGGPSYNYFPQAPAKPARTGYEKYHEQPIEDLQVDAALWGVAPKKQPPPPAQPAVPSAPSGGRKMLSLEEVEAQMRAQAKAATPSPAPQHQPHQIPHEQAYLYQQQAQNQQQAHFQAGVVEPLYHQPQGHPMTILQRPHSKPATPAQPSSQPPAIQQHQQPVAPQQPTQILQNPNRLSGDAAKIGLPVHPTPPTGPQGHRQQGSLPRQPPMVLHPAQLAQLSEEEKAAYLEQEAKRAKRNHKIFQMSRDNGIMTPQDKNFITRIQLQQLVAATGNPNEHGTDESLAEDFYYQVHSQIQAGHRQHPSQPLNQFAQTYLFQTGSRQGGMRRHNRGPENHMQRMEQQVQRAVEAAKNKPKNKQLVIEGSLGKISFSNAKTPKPLLNIKRNDSASDVKKAPHPINGRDKKSELKALELVYTTLMKMEDHERNMPMAPAEDDQEALNKVFAWSNEGQALNEQLWKALRVQDMEQPGRIHPFMALLCYNKGKKAIPRIFRHTNHEQRITIFTRIVLNLDQLDVVREAQVTTDDIQFNAAMRENIELFSAAIVTTLFTFMNELGLDLVAGILGLVCTRNVDIIAKSRIGASMLTMILSRAELIKHNGGGSEQDWRSWDMTYTQFFNLLEPSLPYIFPGSLATDQDTYVWQLLAAIGIGASPDQQQRLVIAVKDRVMDTVSLAKTLPPALATERLSNVNLFMRSIGLDVELLQ

binding [2]: binds
B8: Malate synthase (SMAC_05223) (protein, UniProt F7VV16 1-542)
chain: MASVETLLQGVTILGPIEEHQRKILTPQALSFVALLHRSFNQTRKNLLERRKIRQAEIDRGVLPDFLPETKHIRENPTWKGAPPAPGLIDRRVEITGPTDRKMVVNALNSDVYTYMADFEDSSAPTWANMVNGQVNLYDAIRRQIDFKQGQKEYKLRTDRTLPTLIVRPRGWHLEEKHITIDGEPVSGSLFDFGLYFFHNAKELIKRGFGPYFYLPKMESHLEARLWNDAFNLAQDYIGIPRGTIRGTVLIETILAAFEMDEIIYELREHSSGLNCGRWDYIFSTIKKFRNHSSFVLPDRSCVTMTVPFMDAYVKLLIQTCHKRGVHAMGGMAAQIPIKDDKAANDKAMEGVRADKLREARAGHDGTWVAHPALASIALEVFNKHMPTPNQLFNRREDVQIGQQDLLNMNVPGSITEEGIRKNLNIGLGYMEAWIRGVGCVPINYLMEDAATAEVSRSQLWQWVKHGVTTAEGKRVDKGYALKLLKEQTDELAAKAPQGNKFKLAAQYFATQVTGEDYADFLTSLLYNEITSAGNSLPASKL

binding [2]: binds
B9: Histone H2B (SMAC_08323) (protein, UniProt F7VV81 1-137)
chain: MPPKPADKKPASKAPATASKAPEKKDAGKKTAASGDKKKRTKARKETYSSYIYKVLKQVHPDTGISNRAMSILNSFVNDIFERVATEASKLAAYNKKSTISSREIQTSVRLILPGELAKHAVSEGTKAVTKYSSSTK
